These results are taken from paper PMC8861116.

Chains of the proteins cited; added tags and fusions are not shown. Lines headed by an entry give the natural chain unless they say otherwise; changes in a name come on top.
UniProt O43684: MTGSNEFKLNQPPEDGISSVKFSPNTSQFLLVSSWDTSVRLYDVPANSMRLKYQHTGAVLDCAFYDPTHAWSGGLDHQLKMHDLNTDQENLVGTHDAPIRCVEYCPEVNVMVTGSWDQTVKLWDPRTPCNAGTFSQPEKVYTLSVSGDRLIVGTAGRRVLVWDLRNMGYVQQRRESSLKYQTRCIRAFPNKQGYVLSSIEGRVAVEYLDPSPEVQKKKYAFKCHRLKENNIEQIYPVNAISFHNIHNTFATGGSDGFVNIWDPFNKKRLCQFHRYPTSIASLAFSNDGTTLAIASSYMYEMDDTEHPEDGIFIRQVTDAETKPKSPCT
UniProt Q13315: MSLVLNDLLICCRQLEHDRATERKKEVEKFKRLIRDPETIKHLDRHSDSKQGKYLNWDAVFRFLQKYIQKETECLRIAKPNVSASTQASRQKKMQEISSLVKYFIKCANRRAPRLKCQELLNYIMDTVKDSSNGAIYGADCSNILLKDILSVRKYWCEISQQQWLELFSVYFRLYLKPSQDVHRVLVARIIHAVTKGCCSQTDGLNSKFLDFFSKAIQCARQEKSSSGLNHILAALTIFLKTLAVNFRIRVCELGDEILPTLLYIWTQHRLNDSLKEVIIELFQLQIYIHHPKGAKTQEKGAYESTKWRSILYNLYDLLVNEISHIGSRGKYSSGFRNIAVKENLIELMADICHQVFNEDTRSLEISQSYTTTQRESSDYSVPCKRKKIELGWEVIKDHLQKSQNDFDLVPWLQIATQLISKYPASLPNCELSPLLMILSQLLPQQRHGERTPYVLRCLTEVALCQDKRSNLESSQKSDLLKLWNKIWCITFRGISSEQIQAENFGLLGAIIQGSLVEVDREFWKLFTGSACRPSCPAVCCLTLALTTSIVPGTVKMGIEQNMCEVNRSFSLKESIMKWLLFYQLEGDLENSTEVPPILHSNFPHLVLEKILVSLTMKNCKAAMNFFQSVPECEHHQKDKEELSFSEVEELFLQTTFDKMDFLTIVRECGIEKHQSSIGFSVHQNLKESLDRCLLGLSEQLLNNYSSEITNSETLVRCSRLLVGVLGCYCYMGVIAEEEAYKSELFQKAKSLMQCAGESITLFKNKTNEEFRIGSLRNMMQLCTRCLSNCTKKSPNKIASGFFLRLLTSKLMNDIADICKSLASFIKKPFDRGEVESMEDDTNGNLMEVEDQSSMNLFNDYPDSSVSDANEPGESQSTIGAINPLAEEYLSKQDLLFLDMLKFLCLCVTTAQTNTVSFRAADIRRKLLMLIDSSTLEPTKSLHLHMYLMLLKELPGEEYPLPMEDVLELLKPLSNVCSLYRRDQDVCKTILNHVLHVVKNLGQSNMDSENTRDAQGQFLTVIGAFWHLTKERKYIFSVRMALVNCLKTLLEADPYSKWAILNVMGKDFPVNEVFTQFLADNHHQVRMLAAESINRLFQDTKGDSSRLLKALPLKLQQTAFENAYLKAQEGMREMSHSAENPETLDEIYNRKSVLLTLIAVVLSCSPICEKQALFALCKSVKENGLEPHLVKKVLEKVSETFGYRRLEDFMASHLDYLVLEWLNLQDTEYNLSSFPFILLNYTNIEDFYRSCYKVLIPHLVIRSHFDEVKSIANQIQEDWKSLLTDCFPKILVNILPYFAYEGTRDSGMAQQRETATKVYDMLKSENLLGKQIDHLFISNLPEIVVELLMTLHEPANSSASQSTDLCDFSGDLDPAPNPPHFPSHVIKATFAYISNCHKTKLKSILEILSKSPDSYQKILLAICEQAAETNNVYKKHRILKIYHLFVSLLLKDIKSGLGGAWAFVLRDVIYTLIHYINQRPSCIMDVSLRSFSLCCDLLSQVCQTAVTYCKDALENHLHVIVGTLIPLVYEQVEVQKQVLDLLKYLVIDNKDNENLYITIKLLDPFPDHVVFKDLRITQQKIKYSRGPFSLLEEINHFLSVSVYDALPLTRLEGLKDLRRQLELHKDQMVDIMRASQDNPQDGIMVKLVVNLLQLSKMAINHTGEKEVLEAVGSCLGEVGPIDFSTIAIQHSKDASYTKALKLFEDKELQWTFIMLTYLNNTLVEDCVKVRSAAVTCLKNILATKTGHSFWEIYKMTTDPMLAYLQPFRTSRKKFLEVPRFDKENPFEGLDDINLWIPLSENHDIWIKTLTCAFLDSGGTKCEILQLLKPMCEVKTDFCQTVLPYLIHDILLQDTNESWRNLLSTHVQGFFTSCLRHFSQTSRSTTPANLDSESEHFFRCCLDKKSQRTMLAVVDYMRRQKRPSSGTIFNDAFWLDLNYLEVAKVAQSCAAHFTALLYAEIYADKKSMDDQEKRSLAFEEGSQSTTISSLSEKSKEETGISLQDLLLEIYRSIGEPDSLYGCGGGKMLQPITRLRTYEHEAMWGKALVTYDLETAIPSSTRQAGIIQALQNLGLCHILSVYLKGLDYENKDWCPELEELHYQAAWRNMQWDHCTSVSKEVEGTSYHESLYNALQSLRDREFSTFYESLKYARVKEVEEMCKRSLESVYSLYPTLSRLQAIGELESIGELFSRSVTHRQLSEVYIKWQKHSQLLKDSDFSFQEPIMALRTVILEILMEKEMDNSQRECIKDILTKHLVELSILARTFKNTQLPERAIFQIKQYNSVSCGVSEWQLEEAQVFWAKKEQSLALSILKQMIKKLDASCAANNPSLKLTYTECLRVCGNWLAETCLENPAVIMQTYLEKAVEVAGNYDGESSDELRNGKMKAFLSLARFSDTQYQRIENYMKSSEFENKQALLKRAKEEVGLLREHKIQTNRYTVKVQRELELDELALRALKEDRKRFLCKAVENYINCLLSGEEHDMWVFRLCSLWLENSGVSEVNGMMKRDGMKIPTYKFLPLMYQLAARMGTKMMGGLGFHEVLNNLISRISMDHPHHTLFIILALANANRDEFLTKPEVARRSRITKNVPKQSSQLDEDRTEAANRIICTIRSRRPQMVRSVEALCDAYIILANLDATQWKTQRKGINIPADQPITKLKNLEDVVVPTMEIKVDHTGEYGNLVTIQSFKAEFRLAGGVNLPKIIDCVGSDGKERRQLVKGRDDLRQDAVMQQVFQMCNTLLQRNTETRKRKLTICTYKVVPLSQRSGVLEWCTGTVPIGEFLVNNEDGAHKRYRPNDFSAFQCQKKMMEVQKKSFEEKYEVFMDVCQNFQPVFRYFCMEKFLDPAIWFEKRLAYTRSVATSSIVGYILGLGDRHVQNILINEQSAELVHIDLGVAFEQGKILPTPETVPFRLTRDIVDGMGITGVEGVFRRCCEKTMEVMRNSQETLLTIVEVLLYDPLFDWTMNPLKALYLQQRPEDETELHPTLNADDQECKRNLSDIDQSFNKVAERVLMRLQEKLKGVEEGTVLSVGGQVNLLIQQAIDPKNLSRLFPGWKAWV
UniProt O43683: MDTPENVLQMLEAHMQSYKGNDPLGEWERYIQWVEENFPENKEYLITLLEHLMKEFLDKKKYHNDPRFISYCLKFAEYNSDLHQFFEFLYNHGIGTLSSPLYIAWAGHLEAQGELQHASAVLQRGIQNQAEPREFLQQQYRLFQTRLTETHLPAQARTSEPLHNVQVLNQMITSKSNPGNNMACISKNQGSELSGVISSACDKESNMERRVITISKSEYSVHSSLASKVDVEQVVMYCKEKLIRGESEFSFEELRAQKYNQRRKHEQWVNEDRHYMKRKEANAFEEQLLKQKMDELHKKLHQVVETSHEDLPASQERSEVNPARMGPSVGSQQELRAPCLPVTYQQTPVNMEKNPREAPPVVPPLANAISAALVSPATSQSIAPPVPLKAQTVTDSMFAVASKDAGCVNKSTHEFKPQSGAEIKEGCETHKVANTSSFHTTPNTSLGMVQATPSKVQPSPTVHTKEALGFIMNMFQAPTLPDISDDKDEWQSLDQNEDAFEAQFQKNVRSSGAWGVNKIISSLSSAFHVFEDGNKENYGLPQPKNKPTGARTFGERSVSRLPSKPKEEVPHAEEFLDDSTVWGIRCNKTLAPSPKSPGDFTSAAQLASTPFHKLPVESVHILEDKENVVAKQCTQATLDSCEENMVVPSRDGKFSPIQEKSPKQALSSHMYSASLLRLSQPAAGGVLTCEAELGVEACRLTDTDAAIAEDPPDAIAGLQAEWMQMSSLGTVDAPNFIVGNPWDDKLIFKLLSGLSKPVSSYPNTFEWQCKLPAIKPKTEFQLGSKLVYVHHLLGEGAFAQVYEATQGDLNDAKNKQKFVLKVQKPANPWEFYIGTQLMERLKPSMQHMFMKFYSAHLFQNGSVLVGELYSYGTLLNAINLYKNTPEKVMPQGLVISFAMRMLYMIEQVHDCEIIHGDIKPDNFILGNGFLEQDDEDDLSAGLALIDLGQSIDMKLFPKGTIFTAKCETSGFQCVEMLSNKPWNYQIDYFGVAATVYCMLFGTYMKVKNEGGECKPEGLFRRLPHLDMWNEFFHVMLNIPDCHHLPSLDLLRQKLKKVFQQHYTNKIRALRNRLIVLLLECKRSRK
UniProt P12956: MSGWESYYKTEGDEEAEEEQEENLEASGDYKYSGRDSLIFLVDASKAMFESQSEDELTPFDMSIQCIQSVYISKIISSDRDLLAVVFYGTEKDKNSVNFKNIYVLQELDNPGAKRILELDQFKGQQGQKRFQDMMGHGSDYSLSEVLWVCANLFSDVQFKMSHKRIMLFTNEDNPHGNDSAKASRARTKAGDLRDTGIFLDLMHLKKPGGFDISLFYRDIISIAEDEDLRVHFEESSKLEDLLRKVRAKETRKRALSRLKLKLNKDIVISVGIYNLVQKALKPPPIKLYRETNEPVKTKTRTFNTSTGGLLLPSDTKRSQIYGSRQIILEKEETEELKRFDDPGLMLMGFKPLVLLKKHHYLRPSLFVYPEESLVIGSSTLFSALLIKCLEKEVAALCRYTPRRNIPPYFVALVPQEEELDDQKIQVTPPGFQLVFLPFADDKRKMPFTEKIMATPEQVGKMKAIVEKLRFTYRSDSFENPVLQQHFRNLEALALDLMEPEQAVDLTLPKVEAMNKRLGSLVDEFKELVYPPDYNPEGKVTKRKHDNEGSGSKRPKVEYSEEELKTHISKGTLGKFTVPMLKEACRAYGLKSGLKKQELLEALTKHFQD
UniProt P13010: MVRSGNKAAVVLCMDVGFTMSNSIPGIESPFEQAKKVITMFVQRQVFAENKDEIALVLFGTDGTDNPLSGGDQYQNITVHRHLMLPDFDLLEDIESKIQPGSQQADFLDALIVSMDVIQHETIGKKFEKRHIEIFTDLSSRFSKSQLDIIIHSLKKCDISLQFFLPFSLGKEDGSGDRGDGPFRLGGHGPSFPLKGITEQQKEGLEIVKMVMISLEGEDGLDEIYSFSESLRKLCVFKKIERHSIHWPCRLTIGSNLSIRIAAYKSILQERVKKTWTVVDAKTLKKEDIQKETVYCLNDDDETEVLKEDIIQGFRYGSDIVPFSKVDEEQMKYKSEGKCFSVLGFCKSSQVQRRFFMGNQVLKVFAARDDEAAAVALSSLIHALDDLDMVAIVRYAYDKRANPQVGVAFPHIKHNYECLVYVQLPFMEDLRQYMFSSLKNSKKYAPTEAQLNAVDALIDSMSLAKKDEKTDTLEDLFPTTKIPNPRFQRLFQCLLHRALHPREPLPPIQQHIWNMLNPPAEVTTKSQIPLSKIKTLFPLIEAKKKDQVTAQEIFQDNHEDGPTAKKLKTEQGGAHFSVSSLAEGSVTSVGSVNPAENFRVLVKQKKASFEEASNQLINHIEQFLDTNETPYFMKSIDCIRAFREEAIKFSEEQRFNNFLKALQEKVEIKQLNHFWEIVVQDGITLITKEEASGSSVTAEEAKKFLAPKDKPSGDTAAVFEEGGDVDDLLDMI
UniProt O43670: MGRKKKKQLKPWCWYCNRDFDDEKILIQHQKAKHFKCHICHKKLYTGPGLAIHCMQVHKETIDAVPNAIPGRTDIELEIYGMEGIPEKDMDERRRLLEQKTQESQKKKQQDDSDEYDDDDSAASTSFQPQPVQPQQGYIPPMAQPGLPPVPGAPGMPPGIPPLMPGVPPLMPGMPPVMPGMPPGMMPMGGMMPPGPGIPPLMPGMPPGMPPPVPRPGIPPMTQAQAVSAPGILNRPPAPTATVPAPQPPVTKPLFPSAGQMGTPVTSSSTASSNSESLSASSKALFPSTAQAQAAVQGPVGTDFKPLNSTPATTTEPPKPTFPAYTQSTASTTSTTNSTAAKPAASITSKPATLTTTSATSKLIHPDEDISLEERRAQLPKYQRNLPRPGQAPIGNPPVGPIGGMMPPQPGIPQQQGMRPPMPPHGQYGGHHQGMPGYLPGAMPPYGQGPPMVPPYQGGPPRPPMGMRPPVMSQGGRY

One assay deals with FLAG-Bub3 S135A (UniProt O43684). Put plainly: co-IP; anti-FLAG immunoprecipitation from lysates of HeLa cells transfected with FLAG-Bub3 WT or S135A, Western blot for the endogenous partner; cells untreated, DMSO, nocodazole or IR.
Another assay concerns the target FLAG-Bub3 WT (UniProt O43684). Described as above.
The target of assay [1] is ATM (endogenous) (human (endogenous in HeLa)) (UniProt Q13315). Put plainly: co-IP; anti-ATM immunoprecipitation from lysates of HeLa cells (untransfected or transfected with FLAG-Bub3 WT or S135A), Western blot; cells DMSO, nocodazole, mock or IR (6 Gy).

These are yes or no findings as the source states them, for the method shown. In cells and extracts the contact can be indirect. Some entries that bind do so weakly or less than the wild type.

Regarding “Bub1 (from UniProt O43683 1-1085) (enzyme)”, the binding result with FLAG-Bub3 S135A and in the assay with FLAG-Bub3 WT was “binds” each time.

With “Bub3 (endogenous) (from UniProt O43684 1-328)”, the binding result in assay [1] is recorded as “binds”. On to “DNA-PKcs (from UniProt P78527 1-4128) (enzyme)”, for which the binding entry with FLAG-Bub3 WT was “binds”. On to “FLAG-Bub3 S135A (from UniProt O43684 1-328)”, for which the binding result in assay [1] is recorded as “binds”. “FLAG-Bub3 WT (from UniProt O43684 1-328)”: in assay [1], the binding result was “binds”.

With Ku70 (from UniProt P12956 1-609), the binding entry with FLAG-Bub3 S135A and with FLAG-Bub3 WT was “binds” in each case.

As for Ku80 (from UniProt P13010 1-732), the binding result with FLAG-Bub3 S135A and in the assay with FLAG-Bub3 WT was “binds” in each case. In the case of “ZNF207 (endogenous) (from UniProt O43670 1-478)”, the binding entry in the assay with FLAG-Bub3 S135A and with FLAG-Bub3 WT was “binds” each time.
